One data set has as its target T1, PFTase (Saccharomyces cerevisiae, UniProt P22007+P29703).
T1 sequence (P22007 1-431): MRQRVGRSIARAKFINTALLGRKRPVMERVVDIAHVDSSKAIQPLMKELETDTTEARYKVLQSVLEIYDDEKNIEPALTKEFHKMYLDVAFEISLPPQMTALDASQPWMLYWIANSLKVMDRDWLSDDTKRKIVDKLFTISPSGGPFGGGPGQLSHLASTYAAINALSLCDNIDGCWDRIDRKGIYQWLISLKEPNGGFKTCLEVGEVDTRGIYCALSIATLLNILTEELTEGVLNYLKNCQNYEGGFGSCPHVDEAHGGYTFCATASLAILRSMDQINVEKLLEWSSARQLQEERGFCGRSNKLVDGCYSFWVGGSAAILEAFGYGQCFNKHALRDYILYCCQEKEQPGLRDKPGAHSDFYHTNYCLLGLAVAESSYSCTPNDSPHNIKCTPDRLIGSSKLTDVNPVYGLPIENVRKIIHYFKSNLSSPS
T1 sequence (P29703 1-316): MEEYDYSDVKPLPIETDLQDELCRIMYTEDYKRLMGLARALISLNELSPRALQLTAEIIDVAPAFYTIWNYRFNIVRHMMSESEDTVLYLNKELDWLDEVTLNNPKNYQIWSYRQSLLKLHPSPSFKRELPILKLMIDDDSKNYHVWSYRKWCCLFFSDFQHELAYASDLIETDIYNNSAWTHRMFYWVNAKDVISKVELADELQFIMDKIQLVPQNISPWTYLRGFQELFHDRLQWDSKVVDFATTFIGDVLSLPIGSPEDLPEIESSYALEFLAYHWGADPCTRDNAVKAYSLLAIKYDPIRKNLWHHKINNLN
Briefly: PFTase in vitro continuous-fluorescence assay. The data set is classed as biochemical.

The conditions of data set [1]: active metabolite at therapeutic doses of Loratadine; cited from earlier work.

We go through one compound from publication PMC2867455 (Journal of medicinal chemistry, 2010).

In the case of `Clc1ccc2c(c1)CCc1cccnc1C2=C1CCNCC1` [Desloratadine], the “PFTase inhibition (in words)” value on PFTase was “not an inhibitor of PFTase”. Further, the plasma concentration result in data set [1] was “approximately 300 nM”.
